{"source": "patent US20090176839A1", "about": "“FORMULATIONS OF 3-(6-(1-(2,2-DIFLUOROBENZO[D][1,3]DIOXOL-5-YL) CYCLOPROPANECARBOXAMIDO)-3-METHYLPYRIDIN-2-YL)BENZOIC ACID” (priority 2007, published 2009)", "key": {"[1]": {"experiment": "Single oral pharmacokinetics of the HCl salt in suspension in fed and fasted male rats", "format": "in vivo, male Sprague Dawley rats", "conditions": "30 mg/kg", "experimental": "Non-validated research grade assays were used for these analyses. All pharmacokinetic studies were conducted using fed animals unless otherwise specified.\nThe tmax following oral administration of the HCl salt was 3.7 hours under fed and 3.3 hours under fasted conditions, which was similar to the tmax of 3.0 to 4.7 hours following oral administration of Compound 1 under fed conditions."}, "[2]": {"experiment": "Oral pharmacokinetics of Compound 1 and HCl salt in suspension in male dogs at 200 mg/kg", "conditions": "HCl salt"}}, "note": "At least one compound was matched to its structure with a doubt left."}
{"compound": "Cc1ccc(NC(=O)C2(c3ccc4c(c3)OC(F)(F)O4)CC2)nc1-c1cccc(C(=O)O)c1.Cl", "note": "[HCl salt, 3-(6-(1-(2,2-difluorobenzo[d][1,3]dioxol-5-yl)cyclopropanecarboxamido)-3-methylpyridin-2-yl)benzoic acid.HCl]", "values": [{"measurement": "Cmax", "setting": "[1]; Fasted", "result": 52.3, "unit": "µg/mL"}, {"measurement": "Cmax", "setting": "[1]; Fed", "result": 36.1, "unit": "µg/mL"}, {"measurement": "Cmax", "setting": "[2]", "result": 133, "unit": "µg/mL"}]}
